Laboratory results reported in patent publication US20200148937A1, “INHIBITING HYDROCARBON HYDRATE AGGLOMERATION” (COMMONWEALTH SCIENTIFIC AND INDUSTRIAL RESEARCH ORGANISATION, priority 2017, published 2020).

Tests used:
[1] = Corrosion inhibition weight-loss measurement; conditions: 2M HCl with 500 ppm additive, open vials, immersion 120 h; blank 3.4% loss
[2] = High pressure autoclave gas hydrate formation test; conditions: 0.5 wt %; for conversion of water to hydrate (conversion ratio): watercut 30, 120 bar natural gas, 4° C. for 10 hrs, pure water 77.36%; for maximum relative torque (τrel,max): watercut 30, 600 rpm stirring, during hydrate formation, pure water 1.74; for subcooling of the temperature at hydrate formation / hydrate formation onset time: watercut 30, decane continuous phase, 120 bar natural gas, cooling 24→4° C. at 0.25 K/min, 600 rpm, average of 10 experiments; for subcooling of the temperature at hydrate formation: pure water 7.01 K; for hydrate formation onset time: pure water 33.42 min

Which “weight loss of carbon steel coupon” value [1] does the source give for `Cc1c(C)c2c(c(C)c1O)CCC(C)(CCCC(C)CCCC(C)CCCC(C)C)O2` (racemic) [racemic alpha tocopherol] here?
Its value is 2.69 % loss.

Which “conversion of water to hydrate (conversion ratio)” value [2] does the source give for `CCCCCCCCCCCC[N+](C)(C)C.[Br-]` [DTAB, dodecyltrimethylammonium bromide, reference compound] here?
The value was 73.79%.

And the “maximum relative torque (τrel,max)” value [2]?
The value was 1.32.

And the “subcooling of the temperature at hydrate formation” value [2]?
The value was 5.9 K.

And the “hydrate formation onset time” value [2]?
The value was 29.10 min.

For `Cc1c(C)c2c(c(C)c1OC(=O)CCC(=O)O)CCC(C)(CCCC(C)CCCC(C)CCCC(C)CCCC(C)C)O2` (stereo not shown) [tocopherol succinate], which “conversion of water to hydrate (conversion ratio)” value [2] is on record?
Its value is 73.35%.

And the “maximum relative torque (τrel,max)” value [2]?
The value was 1.18.

What about the “subcooling of the temperature at hydrate formation” value [2] of the same molecule?
The value was 8.19 K.

And the “hydrate formation onset time” value [2]?
Its value is 54.27 min.

For `Cc1c(C)c2c(c(C)c1O)CC[C@@](C)(CCC[C@H](C)CCC[C@H](C)CCCC(C)C)O2` [(+) alpha-tocopherol], which “weight loss of carbon steel coupon” value [1] is on record?
The value was 2.88 % loss.
